Source: patent US9801908B2, “Treatment for chitin-containing microorganisms” (BENCHMARK ANIMAL HEALTH LIMITED, priority 2013, dated 2017)

Tested on: Atlantic salmon eyed eggs

**Q.** Which results are given for `OB(O)O` [boric acid]?
**A.** start of egg hatching relative to day 7 post challenge (BA 0.2, 0.6, 0.8, 1.0 and 1.4 g/L continuous): 1 day later; start of egg hatching (BA 0.4 and 1.2 g/L continuous (same day as non-treated group)): 7 day post challenge
